PubChem BioAssay AID504804 – Drosophila RNAi Screening Center, 2011

Purpose: 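Fly genes whose loss lessens doxorubicin-driven cell death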 (primary screen)
Cells: Drosophila Kc cells
Reagent: long dsRNA against Drosophila genes, 0.5 µg dsRNA per well
Timing: 96 h (48 h knock-down, then 48 h drug)
Conditions: doxorubicin 5 µg/ml for 48 h, added 48 h after dsRNA
Measurement: 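Luminescent ATP counts per replicate, not normalised, reflecting viable cells after 48 h dsRNA knock-down followed by 48 h of 5 µg/ml doxorubicin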
Direction: raw ATP luminescence: higher = more viable cells, protection from doxorubicin
Active means: 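z-score of 2 or more over plate mean in both duplicates, retained only when retests and separate dsRNAs confirm the protection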
The deposit covers about 19,000 reagents; shown is an unselected part of those that have a named target and a result. In the full data, 47 (0.25%) were called active. 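Signals are raw, not normalised; exact z-scores behind calls not deposited; actives needed confirmation, so some wells reaching 2 SD are inactive.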

For CG15099 (GeneID 37176) [DRSC06528], what was measured?
raw ATP luminescence, replicate 1: 87517; raw ATP luminescence, replicate 2: 61693; Outcome: inactive

Which result is listed for Efhc1.1 (GeneID 32528) [DRSC20135]?
raw ATP luminescence, replicate 1: 3.55e5; raw ATP luminescence, replicate 2: 3.33e5; Outcome: inactive

With CG33127 (GeneID 318893) [DRSC00011], how do the results read?
raw ATP luminescence, replicate 1: 2.20e5; raw ATP luminescence, replicate 2: 2.22e5; Outcome: inactive

With CG10969 (GeneID 39451) [DRSC09811], what was measured?
raw ATP luminescence, replicate 1: 87370; raw ATP luminescence, replicate 2: 73767; Outcome: inactive

What is on record for CG5645 (GeneID 39382) [DRSC10532]?
raw ATP luminescence, replicate 1: 43417; raw ATP luminescence, replicate 2: 46093; Outcome: inactive

What did the screen give for Phs (GeneID 39697) [DRSC10827]?
raw ATP luminescence, replicate 1: 31480; raw ATP luminescence, replicate 2: 23173; Outcome: inactive

With NHP2 (GeneID 44005) [DRSC11229], how do the results read?
raw ATP luminescence, replicate 1: 76370; raw ATP luminescence, replicate 2: 51003; Outcome: inactive

With Smr (GeneID 32225) [DRSC20288], what does the deposit list?
raw ATP luminescence, replicate 1: 57810; raw ATP luminescence, replicate 2: 64460; Outcome: inactive

What did the screen give for betaTub97EF (GeneID 43359) [DRSC15666]?
raw ATP luminescence, replicate 1: 57590; raw ATP luminescence, replicate 2: 30250; Outcome: inactive

What is on record for betaTub97EF (GeneID 43359) [DRSC15667]?
raw ATP luminescence, replicate 1: 66860; raw ATP luminescence, replicate 2: 51960; Outcome: inactive

For betaTub97EF (GeneID 43359) [DRSC15668], what does the deposit list?
raw ATP luminescence, replicate 1: 57210; raw ATP luminescence, replicate 2: 43190; Outcome: inactive

With Klp64D (GeneID 38611) [DRSC11204], what was measured?
raw ATP luminescence, replicate 1: 80483; raw ATP luminescence, replicate 2: 78720; Outcome: inactive

A few values from above.
Under “raw ATP luminescence, replicate 1”, CG5645 (GeneID 39382) [DRSC10532] shows 43417
Value for betaTub97EF (GeneID 43359) [DRSC15667] under “Outcome”: inactive
For “raw ATP luminescence, replicate 2”, CG15099 (GeneID 37176) [DRSC06528] has 61693

The listing continues.
With TTLL12 (GeneID 35732) [DRSC06555], how do the results read?
raw ATP luminescence, replicate 1: 42187; raw ATP luminescence, replicate 2: 98860; Outcome: inactive

What did the screen give for CG3309 (GeneID 31450) [DRSC18301]?
raw ATP luminescence, replicate 1: 68300; raw ATP luminescence, replicate 2: 51760; Outcome: inactive

What is on record for CG34155 (GeneID 4379867) [DRSC13991]?
raw ATP luminescence, replicate 1: 2.73e5; raw ATP luminescence, replicate 2: 2.86e5; Outcome: inactive

For CG34046 (retired record) (GeneID 3885653) [DRSC14075], what was measured?
raw ATP luminescence, replicate 1: 1.92e5; raw ATP luminescence, replicate 2: 1.91e5; Outcome: inactive

How did the screen score Hs2st (GeneID 44433) [DRSC03348]?
raw ATP luminescence, replicate 1: 85083; raw ATP luminescence, replicate 2: 51347; Outcome: inactive

For CG10470 (GeneID 35174) [DRSC02061], what does the deposit list?
raw ATP luminescence, replicate 1: 69367; raw ATP luminescence, replicate 2: 67237; Outcome: inactive

For dare (GeneID 36203) [DRSC07602], what does the deposit list?
raw ATP luminescence, replicate 1: 63260; raw ATP luminescence, replicate 2: 55827; Outcome: inactive

With DnaJ-H (GeneID 34707) [DRSC03273], what does the deposit list?
raw ATP luminescence, replicate 1: 59973; raw ATP luminescence, replicate 2: 66233; Outcome: inactive

How did the screen score Srx (GeneID 32768) [DRSC20005]?
raw ATP luminescence, replicate 1: 4.53e5; raw ATP luminescence, replicate 2: 3.54e5; Outcome: inactive

With NC2beta (GeneID 34875) [DRSC01895], what does the deposit list?
raw ATP luminescence, replicate 1: 1.03e5; raw ATP luminescence, replicate 2: 56533; Outcome: inactive

For Sil1 (GeneID 43034) [DRSC14242], how do the results read?
raw ATP luminescence, replicate 1: 54157; raw ATP luminescence, replicate 2: 54900; Outcome: inactive

What is on record for CG11269 (GeneID 37527) [DRSC04094]?
raw ATP luminescence, replicate 1: 64790; raw ATP luminescence, replicate 2: 51770; Outcome: inactive

How did the screen score CG7579 (GeneID 39714) [DRSC10885]?
raw ATP luminescence, replicate 1: 67180; raw ATP luminescence, replicate 2: 49063; Outcome: inactive

Which result is listed for CG14456 (GeneID 40481) [DRSC11713]?
raw ATP luminescence, replicate 1: 54647; raw ATP luminescence, replicate 2: 51667; Outcome: inactive

For CG31741 (GeneID 35079) [DRSC02887], what does the deposit list?
raw ATP luminescence, replicate 1: 57723; raw ATP luminescence, replicate 2: 63220; Outcome: inactive

With CG14893 (GeneID 42023) [DRSC15015], what does the deposit list?
raw ATP luminescence, replicate 1: 74210; raw ATP luminescence, replicate 2: 70620; Outcome: inactive

For CG8460 (GeneID 34115) [DRSC03090], what was measured?
raw ATP luminescence, replicate 1: 1.11e5; raw ATP luminescence, replicate 2: 64280; Outcome: inactive

With Tbcd (GeneID 33389) [DRSC00273], what was measured?
raw ATP luminescence, replicate 1: 1.00e5; raw ATP luminescence, replicate 2: 63940; Outcome: inactive

How did the screen score BckdhA (GeneID 41149) [DRSC16395]?
raw ATP luminescence, replicate 1: 65133; raw ATP luminescence, replicate 2: 49080; Outcome: inactive

What did the screen give for CG5504 (GeneID 48844) [DRSC04701]?
raw ATP luminescence, replicate 1: 78417; raw ATP luminescence, replicate 2: 66347; Outcome: inactive

For CG11145 (GeneID 35663) [DRSC06049], what does the deposit list?
raw ATP luminescence, replicate 1: 48560; raw ATP luminescence, replicate 2: 65410; Outcome: inactive

With CG13021 (GeneID 31323) [DRSC17893], what does the deposit list?
raw ATP luminescence, replicate 1: 54420; raw ATP luminescence, replicate 2: 51850; Outcome: inactive

With CG31464 (GeneID 318749) [DRSC14345], what was measured?
raw ATP luminescence, replicate 1: 69527; raw ATP luminescence, replicate 2: 59103; Outcome: inactive

Which result is listed for Ac13E (GeneID 32485) [DRSC19325]?
raw ATP luminescence, replicate 1: 2.78e5; raw ATP luminescence, replicate 2: 2.17e5; Outcome: inactive
